In patent US5935606A, “Reversing excitotoxic CNS damage by cellular implantation” (priority 1995, dated 1999):

System: NMDA receptors
Assay: [3H]CGP-39653 saturation binding, spinal cord membranes
Details: normal rat whole spinal cord
Procedure: Changes in NMDA receptor levels were determined at three weeks following nerve injury (one week following transplantation), as a marked distinction in responses to sensory stimuli between adrenal medullary and control transplanted animals can be made at this time point. […] [^3 H]CGP-39653 (D,L-(E)-2-amino-4-propyl-5-phosphono-3-pentenoate), a selective high-affinity competitive antagonist at NMDA receptors, was used to label the binding sites. In preliminary experiments, binding characteristics of this ligand were determined in the rat spinal cord. Saturation assays were performed on whole spinal cord tissue, and the results compared to those obtained in cortical membranes. NMDA binding sites were analyzed using previously described procedures with slight modification [M. A. Sills et al., Eur. J. Pharmacol., 192:19-24 (1991)]. Animals were decapitated and the spinal cords were rapidly extruded with saline pressure. […] This volume of tissue corresponded to approximately 110 μg of protein as determined using the Bradford method (BioRad, Richmond, Calif.). […] Nonspecific binding was determined in parallel tubes containing 100 mM L-glutamiate. […] Radioactivity was counted with a Beckman 3270 scintillation counter at 48-52% efficiency. Estimates of binding parameters were determined using the program LIGAND [P. J. Munson and D. Rodbard, Anal. Biochem., 197:220-239 (1980)].

## CCC/C(=C\C(N)C(=O)O)CP(=O)(O)O (racemic) [[^3 H]CGP-39653, D,L-(E)-2-amino-4-propyl-5-phosphono-3-pentenoate]
  Bmax spinal cord: 224.9 +/-18.8 fmol/mg protein
